Results on three sequences are retold here after article PMC8633288.

One data set concerns the target MBP (UniProt P0AEX9). Kind of data set: EMSA. The following applies: poly(dI-dC); LightShift EMSA kit, 20 uL: 0.5 uL protein, 4 uL biotin probe (100 pmol), 2 uL binding buffer, 1 uL poly(dI-dC); pH and temperature not stated; recombinant protein; protein details: 6xHis; label: 5' biotin on both strands.
The subject of data set [1] is MBP-STM3 (Solanum lycopersicum). Kind of data set: EMSA. Conditions: poly(dI-dC); LightShift EMSA kit, 20 uL: 0.5 uL protein, 4 uL biotin probe (100 pmol), 2 uL binding buffer, 1 uL poly(dI-dC); pH and temperature not stated; recombinant protein; protein details: N-terminal MBP, 6xHis (MBP-pMCSG7); label: 5' biotin on both strands.
For data set [2] the test system is unchanged. As to the kind of experiment: competition with a labelled probe. The following applies: excess unlabeled competitor against labeled N1; LightShift EMSA kit, 20 uL: 0.5 uL protein, 4 uL biotin probe (100 pmol), 2 uL binding buffer, 1 uL poly(dI-dC); pH and temperature not stated; recombinant protein; protein details: N-terminal MBP, 6xHis (MBP-pMCSG7).

For some of these results: Negatives hold for the conditions tested. For some of these results: For at least one entry, the source does not settle the construct or the ends of the probe. For some of these results: Weaker means in comparison with the reference protein, sequence or condition of that experiment.

Consider “GATACCAAACAGAGAAACACTACTCCACACCCTTCTTTTTTTTTCTTCC (double strand) [FUL1 promoter S1 probe (49 bp)]”, for which the results for the binding result (with MBP; in data set [1]) were “no binding” and “binds”, respectively.

With “GATACCAAACAGAGAAACACTACTCCACACCCTTCTTTTTTTTTCTTCC (double strand) [FUL1 promoter S1 unlabeled competitor]”, the binding result in data set [2] is “binds”.

Consider “GATTAAAAAAAAAAAAAAACTACTCCACATTTTTTTTTTTTTTTCTTCC (double strand) [muFUL1 mutated probe]”, for which the binding result in data set [1] is reported as “binds more weakly”.
